PubChem BioAssay AID1508588, Peter MacCallum Cancer Centre | 2020
Assay: 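Which gene losses make BRAF-mutant melanoma cells more responsive to vemurafenib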 (primary screen). System: human WM266.4 melanoma cells (BRAF V600 mutant). Reagent: siRNA pool against human genes, 40 nM. Time to read-out: 96 h from transfection to read-out. Challenge: vemurafenib 300 nM (about IC25), added 48 h after transfection, for 48 h; comparison arm got DMSO vehicle only. Detection: 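Cell gain (DAPI nuclei at end minus before drug, mean of two replicates) and medium lactate by absorbance per cell, both as ratio to non-targeting siRNA, also grouped into fold-change classes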. Direction: cell gain with vemurafenib: higher = more cell gain than with non-targeting siRNA; lactate per cell with vemurafenib: higher = more lactate made per cell. Call rule: 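a knock-down counts as enhancing when its fold-change classes with vehicle and with vemurafenib, taken together, show a stronger drug effect on cell gain or lactate per cell; exact class pairs not stated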. Calls: active = enhances vemurafenib effect; inactive = no enhancement seen.
Shown is a random part of about 18,000 reagents tested. 790 of them (4.4%) were called active. 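Calls rest on a combination of fold-change classes in drug and vehicle arms, not all shown here.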 A number with no mark means an inactive call.

Target gene | cell gain with vemurafenib | lactate per cell with vemurafenib
SYT13 | 0.53 | 0.38
RSPH1 | 0.82 | 0.76
NOL10 | 0.64 | 0.44
RFPL4B | 1.19 | 0.72
TSLIG3A | 0.55 | 1.33
DNAJC24 | 0.62 | 0.76
CHMP6 | 0.64 | 1.2
INPP5B | 0.43 | 1
IFITM1 | 0.69 | 0.52
TRIM54 | 1.02 | 0.86
FLVCR2 | 0.2 | 1
STMN4 | 0.21 | 1.03
RNASE13 | 0.24 | 1.1
PTPRH | 0.41 | 0.82
C6orf89 | 0.3 | 0.31
CPNE3 | 0.69 | 0.66
SMARCD1 | 0.72 | 1.15
NCAPG2 | 0.77 | 1.03
PNPLA5 | 0.72 | 0.5
ATP5F1A | 0.75 | 1.08
LAIR1 | 0.45 | 0.57
VAPA | 0.67 | 0.68
CLNK | 0.29 | 0.9
WWOX | 0.63 | 1.22
DNAI2 | -0.01 | 0.6
POSTN | 0.79 | 0.5
BET1L | 0.04 | 1.46
TSPAN4 | 0.23 (active) | 0.52
FKBP6 | 0.62 | 0.27
RASAL2 | 0.39 | 1.38
HPGD | 0.56 | 1.23

The list goes on (4 carried over from the part before).
Target gene | cell gain with vemurafenib | lactate per cell with vemurafenib
TSPAN4 | 0.23 (active) | 0.52
FKBP6 | 0.62 | 0.27
RASAL2 | 0.39 | 1.38
HPGD | 0.56 | 1.23
PDRG1 | 0.53 | 1.5
TJP1 | 0.67 | 1.09
OMG | 0.79 | 0.58
MET | 0.41 | 0.59
IL17F | 0.23 | 1.25
PPP2CB | 0.8 | 0.55
HMGXB4 | 0.94 | 0.32
SFTPC | 1.23 | 0.43
CACNA1I | 0.62 | 0.43
MREG | 0.63 | 0.88
PIGO | 0.18 | 1.22
CPQ | 0.37 | 1.59
C19orf47 | 0.18 (active) | 0.42
RAPSN | 0.98 | 0.91
GTF3C6 | 0.41 | 1.59
MARCHF8 | 0.99 | 0.45
FIP1L1 | 0.22 | 1.43
MSH3 | 0.07 (active) | 0.64
ZNF2 | 0.95 | 1.12
THSD1 | 0.62 (active) | 0.36
CTNND2 | 0.42 (active) | 0.57
GOT1 | 0.71 | 0.72
STX1B | 0.69 (active) | 0.47
DNAI3 | 0.68 | 0.93
TUBA8 | 1.13 | 0.59
ALAD | 0.73 | 0.74
